Assay results taken from patent US20260158005A1, “A SALT-BASED ANTIFUNGAL POWDER PLATFORM FORMULATION FOR AEROSOLIZATION” (AGENCY FOR SCIENCE, TECHNOLOGY AND RESEARCH, priority 2021, published 2026).
At least one compound was matched to its structure with a doubt left.

Assay: In vitro aerosol performance: Fine Particle Fraction (FPF) of the powder
Format: physicochemical
Details: Table 5; optimized platform formulation (sodium sulfate 5% w/w, L-leucine 30% w/w, spray dry) vs unformulated
Excerpt: The responses were Fine Particle Fraction (FPF) and Anti-fungal Activity (MIC—Minimum Inhibitory Concentration) (Table 2), while the tested pathogen was Candida albicans.
The FPF was influenced mainly by the type of salt excipient (i.e., parameter A; Rank 1), with sodium sulfate as one of the preferred options. The optimum results for all the parameters are: A6, B1, C1, D3.
Letters A, B, C and D represent the experimental parameters and corresponding levels.

Structure (SMILES): CCC(C)n1ncn(-c2ccc(N3CCN(c4ccc(OCC5COC(Cn6cncn6)(c6ccc(Cl)cc6Cl)O5)cc4)CC3)cc2)c1=O (stereo not shown) [B, Itraconazole]
- FPF (%): 3.4 ± 0.5%
